Experimental data as given in publication PMC5733569, “Sbp1 modulates the translation of Pab1 mRNA in a poly(A)- and RGG-dependent manner” (RNA, 2018).
Results are given in words; binding and its absence hold for the method and conditions named. Sequences can lack the tags named with a protein.

Biological target: T1, GST-Sbp1 (S. cerevisiae) (UniProt P10080)
T1 sequence: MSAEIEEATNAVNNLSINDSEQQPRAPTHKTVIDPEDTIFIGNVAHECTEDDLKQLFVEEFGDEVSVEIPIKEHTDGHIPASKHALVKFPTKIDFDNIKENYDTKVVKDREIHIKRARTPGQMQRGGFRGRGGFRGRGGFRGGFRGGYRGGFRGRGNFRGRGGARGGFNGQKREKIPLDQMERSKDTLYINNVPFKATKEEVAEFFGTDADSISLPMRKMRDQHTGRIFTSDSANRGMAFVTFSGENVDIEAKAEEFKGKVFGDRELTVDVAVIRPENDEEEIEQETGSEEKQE
Experiment: pull-down; domain mutants of Pab1 tested for binding with Sbp1 (Supplemental Fig. S5A-H); which partner was GST-tagged and whether RNA was present is not given; both purified

binding: no binding
B1: C-terminal protein-binding domain of Pab1 (PABC) (domain or fragment, UniProt P04147 489-568)
chain: GFPRNANDNNQFYQQKQRQALGEQLYKKVSAKTSNEEAAGKITGMILDLPPQEVFPLLESDELFEQHYKEASAAYESFKK
